PubChem BioAssay AID1259267 | Sanger Institute – 2017
The whole screen tested 794 reagents; this is a random part of them. Over the whole deposit, 9 (1.1%) are marked active. 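Viability capped at 1; calls reflect loss of viability from knock-down alone, not synergy with drugs.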 Entries without a mark were called inactive. Not all columns of the deposit are shown. The record does not give: the amount of reagent, the time to read-out.

- Test: 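Kinase and colorectal-mutated gene knock-downs lethal to GP5D cells alone or with drugs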 (primary screen)
- System: human GP5D colorectal cancer cells
- Reagents: siRNA pool against human genes
- Conditions: anchor drugs at low dose: BYL719 1 µM, cetuximab 5 µg/ml, trametinib 10 nM, or DMSO vehicle
- Measured: 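Mean replicate viability versus non-targeting pool, given as knock-down-alone robust z-score, DMSO fraction, and synergy with low-dose BYL719, cetuximab or trametinib (1 µM, 5 µg/ml, 10 nM)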
- Scale: robust z-score, knock-down alone and viability with DMSO: higher = more viable cells
- Units: viability with DMSO in fraction of control
- Call rule: 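a robust z-score below -3 for the knock-down by itself makes a gene active, i.e. essential alone; synergy scores are ignored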
- Calls: active = essential alone; inactive = not essential

ACO1 (GeneID 48)
- robust z-score, knock-down alone: -0.213
- viability with DMSO: 0.782

CDKN1A (GeneID 1026)
- robust z-score, knock-down alone: 0.817
- viability with DMSO: 1

GUK1 (GeneID 2987)
- robust z-score, knock-down alone: 0.817
- viability with DMSO: 1

CDK5R1 (GeneID 8851)
- robust z-score, knock-down alone: -0.714
- viability with DMSO: 0.676

GRK6 (GeneID 2870)
- robust z-score, knock-down alone: 0.246
- viability with DMSO: 0.879

SRPK2 (GeneID 6733)
- robust z-score, knock-down alone: 0.817
- viability with DMSO: 1

CSNK1E (GeneID 1454)
- robust z-score, knock-down alone: 0.817
- viability with DMSO: 1

CSNK1A1 (GeneID 1452)
- robust z-score, knock-down alone: 0.817
- viability with DMSO: 1

GRK5 (GeneID 2869)
- robust z-score, knock-down alone: 0.691
- viability with DMSO: 0.973

PIK3C2A (GeneID 5286)
- robust z-score, knock-down alone: -3.48 (active)
- viability with DMSO: 0.09

ITPKC (GeneID 80271)
- robust z-score, knock-down alone: 0.817
- viability with DMSO: 1

CDK18 (GeneID 5129)
- robust z-score, knock-down alone: -2.78
- viability with DMSO: 0.238

BCR (GeneID 613)
- robust z-score, knock-down alone: 0.47
- viability with DMSO: 0.926

ATRX (GeneID 546)
- robust z-score, knock-down alone: 0.817
- viability with DMSO: 1

CAD (GeneID 790)
- robust z-score, knock-down alone: 0.817
- viability with DMSO: 1

SHPK (GeneID 23729)
- robust z-score, knock-down alone: -1.31
- viability with DMSO: 0.548

MAPK8 (GeneID 5599)
- robust z-score, knock-down alone: 0.817
- viability with DMSO: 1

KSR1 (GeneID 8844)
- robust z-score, knock-down alone: -0.116
- viability with DMSO: 0.802

SIK2 (GeneID 23235)
- robust z-score, knock-down alone: -0.529
- viability with DMSO: 0.715

Hits (from the list above):
PIK3C2A (GeneID 5286)
- robust z-score, knock-down alone: -3.48 (active)
- viability with DMSO: 0.09
